# Primary screen of a compound library

Protein sequences, listed by entry. Tags and fused reporters are not part of them.
UniProt I6X8D2, whole entry: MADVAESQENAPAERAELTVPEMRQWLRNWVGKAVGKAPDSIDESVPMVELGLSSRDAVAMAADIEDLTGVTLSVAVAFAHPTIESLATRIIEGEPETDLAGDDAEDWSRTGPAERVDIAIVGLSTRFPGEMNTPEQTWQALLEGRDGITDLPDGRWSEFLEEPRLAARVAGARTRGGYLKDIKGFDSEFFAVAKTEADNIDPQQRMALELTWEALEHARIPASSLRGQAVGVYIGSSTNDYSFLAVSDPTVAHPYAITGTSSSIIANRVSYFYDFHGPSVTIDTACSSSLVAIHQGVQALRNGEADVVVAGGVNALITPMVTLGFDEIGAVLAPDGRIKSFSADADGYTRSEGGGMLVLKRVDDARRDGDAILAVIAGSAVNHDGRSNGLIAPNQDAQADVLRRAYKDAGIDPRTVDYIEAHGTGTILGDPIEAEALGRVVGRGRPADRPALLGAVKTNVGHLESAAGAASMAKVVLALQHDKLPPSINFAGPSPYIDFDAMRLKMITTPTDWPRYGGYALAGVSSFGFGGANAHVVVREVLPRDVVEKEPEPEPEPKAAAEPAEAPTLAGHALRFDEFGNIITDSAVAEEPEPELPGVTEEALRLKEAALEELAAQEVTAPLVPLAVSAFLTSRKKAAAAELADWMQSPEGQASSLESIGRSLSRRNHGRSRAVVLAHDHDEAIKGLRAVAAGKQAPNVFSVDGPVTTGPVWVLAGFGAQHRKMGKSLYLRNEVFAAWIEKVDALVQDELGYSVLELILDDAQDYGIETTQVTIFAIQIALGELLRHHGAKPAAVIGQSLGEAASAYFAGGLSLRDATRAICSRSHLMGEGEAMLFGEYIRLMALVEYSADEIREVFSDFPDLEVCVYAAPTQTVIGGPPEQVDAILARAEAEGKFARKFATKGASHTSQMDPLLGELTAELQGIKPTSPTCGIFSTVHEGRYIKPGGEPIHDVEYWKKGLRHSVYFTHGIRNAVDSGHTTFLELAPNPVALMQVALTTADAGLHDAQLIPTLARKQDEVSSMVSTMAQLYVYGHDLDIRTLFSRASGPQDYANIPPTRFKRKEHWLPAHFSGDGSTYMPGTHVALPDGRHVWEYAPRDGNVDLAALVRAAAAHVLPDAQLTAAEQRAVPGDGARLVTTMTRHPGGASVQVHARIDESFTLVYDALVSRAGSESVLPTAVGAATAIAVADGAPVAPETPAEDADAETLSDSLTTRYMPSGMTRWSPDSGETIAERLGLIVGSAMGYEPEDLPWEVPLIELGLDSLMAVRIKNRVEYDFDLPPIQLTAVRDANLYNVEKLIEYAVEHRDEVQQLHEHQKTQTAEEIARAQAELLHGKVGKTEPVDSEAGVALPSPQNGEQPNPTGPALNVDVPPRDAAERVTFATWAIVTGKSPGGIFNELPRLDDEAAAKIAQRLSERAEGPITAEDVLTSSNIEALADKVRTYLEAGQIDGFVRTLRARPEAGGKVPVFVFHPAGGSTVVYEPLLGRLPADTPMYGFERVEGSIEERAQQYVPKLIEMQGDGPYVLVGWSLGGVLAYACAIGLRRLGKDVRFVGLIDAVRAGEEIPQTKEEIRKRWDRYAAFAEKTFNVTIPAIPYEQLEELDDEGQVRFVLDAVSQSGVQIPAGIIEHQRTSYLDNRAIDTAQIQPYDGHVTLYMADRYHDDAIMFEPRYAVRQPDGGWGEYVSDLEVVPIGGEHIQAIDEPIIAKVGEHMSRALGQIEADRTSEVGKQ
UniProt P9WNZ1, whole entry: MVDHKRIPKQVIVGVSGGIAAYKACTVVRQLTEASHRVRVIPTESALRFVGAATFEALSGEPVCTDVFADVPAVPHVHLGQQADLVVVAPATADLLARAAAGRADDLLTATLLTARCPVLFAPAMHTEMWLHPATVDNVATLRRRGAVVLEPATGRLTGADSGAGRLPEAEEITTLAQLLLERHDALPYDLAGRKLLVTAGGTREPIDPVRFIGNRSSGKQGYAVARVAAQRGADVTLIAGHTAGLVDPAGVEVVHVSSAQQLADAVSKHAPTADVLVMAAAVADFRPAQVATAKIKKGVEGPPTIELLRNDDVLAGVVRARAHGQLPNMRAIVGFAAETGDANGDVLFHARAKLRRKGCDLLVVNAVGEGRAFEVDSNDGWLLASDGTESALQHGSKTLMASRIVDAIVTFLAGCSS
UniProt P9WFT3, whole entry: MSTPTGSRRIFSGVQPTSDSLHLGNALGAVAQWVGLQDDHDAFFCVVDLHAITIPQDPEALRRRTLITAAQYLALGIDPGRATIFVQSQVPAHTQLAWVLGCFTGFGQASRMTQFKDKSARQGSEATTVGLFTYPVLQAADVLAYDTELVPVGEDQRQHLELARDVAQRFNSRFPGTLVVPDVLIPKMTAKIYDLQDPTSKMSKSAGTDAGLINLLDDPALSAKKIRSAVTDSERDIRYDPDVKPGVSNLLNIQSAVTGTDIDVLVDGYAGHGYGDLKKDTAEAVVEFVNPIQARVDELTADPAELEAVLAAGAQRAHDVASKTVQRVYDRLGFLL

Each number is a percent effect as filed.
How 0% and 100% were set is not recorded. Most values in the screen are low, and negative values occur.
This is an unselected part of the compounds tested.
Two or more numbers in one place are separate tests of the same structure; such repeats can differ widely.
A dash means the value is not listed here; it may have been measured.

Pks13 thioesterase: 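Polyketide synthase Pks13, Mycobacterium tuberculosis (UniProt I6X8D2). Enzyme assay of the thioesterase domain of polyketide synthase 13; the read-out is not stated. Concentration: 30 µM. The record gives no direction; the compounds picked for IC50 retests had high values, so higher reads as stronger inhibition. Of about 67,000 compounds tested this way, about 300 (0.46%) reached 50% or more in at least one test.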
CoaBC: 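Coenzyme A biosynthesis protein CoaBC, Mycobacterium tuberculosis (UniProt P9WNZ1). Enzyme assay of CoaBC with a phosphate dye (Biomol Green) read at 650 nm. Compounds at 30 µM. Direction is inferred from only a few compounds that gave an IC50; most scored high, so higher reads as stronger inhibition. Most strong results did not repeat in a second test. About 67,000 compounds were tested under these conditions; 0.06% (about 40) showed 50% or more at least once.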
Leishmania in macrophages: 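Cell assay of Leishmania donovani living inside macrophages; the read-out is not stated. Concentration: 30 µM. Higher reads as stronger inhibition (inferred: compounds with an IC50 in retests scored well above the rest). Size under these conditions: about 69,000 compounds, about 1,000 of them at 50% or above in at least one test.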
MtTrpRS: 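Tryptophan-tRNA ligase, Mycobacterium tuberculosis (UniProt P9WFT3). Enzyme assay of tryptophanyl-tRNA synthetase; the read-out is not stated. Concentration: 10 µM. Direction is not recorded; retested compounds ran higher, which suggests that high means inhibition. About 65,000 compounds were tested under these conditions; 0.098% (about 64) showed 50% or more at least once.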

compound | Pks13 thioesterase | CoaBC | Leishmania in macrophages | MtTrpRS
CN1CCN(C(=O)N2CC[C@@](O)(c3ccccc3)[C@H]3CCCC[C@@H]32)CC1 | -21.63% | 0.4969% | - | 5.945%
COCCC1COC2(CCN(C(=O)c3cccnc3)CC2)C1 (centres undefined) | 11.22% | 2.75% | - | 0.4691%
NC(=O)COc1cccc(C(=O)Nc2cnc3n2CCCC3)c1 | -5.994% | -0.8439% | 19.28% | -5.498%
CCS(=O)(=O)N1CCC2(CC1)CC[C@@]1(C(=O)N(C)C)CN(C(C)=O)C[C@@H]21 | -13.13% | 12.92% | - | 16.01%
c1ccc(Cc2n[nH]c(C3CCOC3)n2)cc1 (centres undefined) | 1.928% | -0.5981% | 30.99% | -0.8542%
NS(=O)(=O)N1CCC(C(=O)Nc2cccc(OC(F)F)c2)CC1 | -20.67% | -6.112% | -107.9% | -1.341%
COc1ccc(Br)c(C(=O)N2CCCC(c3nc(C)no3)C2)c1 (centres undefined) | -8.614% | -4.104% | 19.8% | 2.034%
CC(Cn1cccn1)NC(=O)NCCN1CCCCCC1=O (centres undefined) | -13.93% | 3.212% | 5.306% | -0.0748%
C[C@H](NC(=O)Cc1csc(-c2cccc(Cl)c2)n1)C(=O)O | -36.69% | 3.158% | 5.371% | 14.95%
N#Cc1cccc(CNC(=O)C2=NN(c3ccccc3)C(=O)CN2)c1 | 2.292% | -8.155% | -19.7% | 13.1%
COc1ccc(Br)c(NC(=O)NCc2ncnn2C)c1 | -22.75% | 2.93% | -7.011% | -2.761%
O=C(O)C(F)(F)F.O=C(O)C(F)(F)F.[H][C@@]12CCCO[C@]1([H])[C@H](N1CCN(C)CC1)CN2C(=O)c1occc1C | - | - | -1.184% | -
CCn1cc(Br)c(C(=O)NCc2ccccc2)n1 | 1.548% | 18.25% | -40.87% | 2.151%
O=C(CCN1CCCC1c1cccc2c1OCCO2)N1CCOCC1 (centres undefined) | -5.752% | 5.372% | 6.475% | 1.81%
CCn1ccnc1CN1CCCN(C(=O)Cc2ccc(C)nc2)CC1 | -19.84% | -12.56% | 32.32% | 4.144%
O=C(NC[C@@]1(COc2cnccn2)C[C@@H](O)[C@@H](O)C1)C1CCCC1 | 8.55% | 2.161% | - | 2.975%
COCC(=O)N1CCC2(CC1)CN(c1ccccn1)CCO2.O=C(O)C(F)(F)F | - | - | 20.85% | -
CCN(C)c1ccc(CNC(=O)c2ccc(NC(N)=O)cc2)cc1F | -34% | - | 28.21% | -0.4128%
CN1CCCC(C(=O)N2CCC(Oc3ncccn3)CC2)C1 (centres undefined) | -38.4% | -7.4% | 0.8004% and -45.15% | -1.292%
Cn1cncc1C(=O)N1CCOC2(COCCN(CC3CC3)C2)C1.O=C(O)C(F)(F)F (centres undefined) | - | - | 1.829% | -
Cc1ccccc1CN1CC[C@H](c2nnc(-c3cncn3C)o2)C1 | -11.76% | 16.7% | 31.08% | -3.738%
CC[C@H]1CN2CC[C@H]1C[C@@H]2CNC(=O)c1ccco1 | -32.95% | 5.077% | - | -5.842%
CCN(Cc1ccc(OC)c(F)c1)C(=O)c1ccc(C)[nH]c1=O | -9.728% | -2.66% | 14.77% | -0.1572%
NCc1cn(-c2ccccc2C(=O)NCc2ccccc2)cn1 | -7.694% | 0.9162% | 21.34% | 2.917%
CCOc1cc(CNCc2ncc[nH]2)c(Cl)cc1OC(C)C | -43.19% | 4.224% | 23.49% | 0.1651%
O=C(C1CCOCC1)N1C[C@H]2CCC[C@@]2(COc2cccnc2)C1 | -1.154% | 3.03% | - | -
Clc1nc2ccccn2c1CNCC1CN(C2CC2)CCO1 (centres undefined) | 5.87% | 5.471% | 10.01% | 4.603%
CN(Cc1ccco1)Cc1cncc2c1CCN(S(C)(=O)=O)C2.Cl.Cl | - | - | 14.34% | -
COC(=O)C1Cc2nc[nH]c2CN1Cc1ccc(Sc2ncccn2)o1 (centres undefined) | 5.425% | 8.961% | -6.031% | 0.4955%
CC(C)NC(=O)C[C@@H]1CCNC[C@@H]1Cc1cc(-c2ccccn2)on1 | -11.98% | 9.934% | 10.52% | 1.442%
[H][C@@]12NC(=O)N[C@@H](c3ccccc3)[C@]1([H])CCCO2 | - | - | 10.23% | -
Cn1ccnc1C1CCN(S(=O)(=O)c2ccc3c(c2)OCCO3)CC1 | -42.58% | 7.995% | 18.19% | -1.348%
CNC(=O)CN(C)C(=O)c1ccc(-c2nc(C)cs2)cc1 | 18.87% | 0.9709% | 15.5% | -8.478%

Once more, the final 4:

* CC(C)NC(=O)C[C@@H]1CCNC[C@@H]1Cc1cc(-c2ccccn2)on1 : Pks13 thioesterase: -11.98%; CoaBC: 9.934%; Leishmania in macrophages: 10.52%; MtTrpRS: 1.442%
* [H][C@@]12NC(=O)N[C@@H](c3ccccc3)[C@]1([H])CCCO2 : Leishmania in macrophages: 10.23%
* Cn1ccnc1C1CCN(S(=O)(=O)c2ccc3c(c2)OCCO3)CC1 : Pks13 thioesterase: -42.58%; CoaBC: 7.995%; Leishmania in macrophages: 18.19%; MtTrpRS: -1.348%
* CNC(=O)CN(C)C(=O)c1ccc(-c2nc(C)cs2)cc1 : Pks13 thioesterase: 18.87%; CoaBC: 0.9709%; Leishmania in macrophages: 15.5%; MtTrpRS: -8.478%

From ChEMBL document CHEMBL3988442, “University of Dundee, Small-Polar-MMV Screening Library” (2021).